The experiment concerns L1210 leukemia ip in BDF1 mice, survival T/C. The experiment in a line: NCI In Vivo Anticancer Drug Screen. Data for tumor model L1210 Leukemia (intraperitoneal) in B6D2F1 (BDF1) mice. The settings on record: T/C endpoint: mean survival time, higher T/C = longer survival.
The mark [1] stands for this setting: dose: 400.0 mg/kg/injection, schedule: Q01DX009 (ip), vehicle: saline with Tween-80.
[2] abbreviates: dose: 100.0 mg/kg/injection, schedule: Q01DX009 (ip), vehicle: Klucel (hydroxypropylcellulose) (HPC).
The mark [3] stands for this setting: dose: 200.0 mg/kg/injection, schedule: Q01DX009 (ip), vehicle: Klucel (hydroxypropylcellulose) (HPC).
The mark [4] stands for this setting: dose: 400.0 mg/kg/injection, schedule: Q01DX009 (ip), vehicle: Klucel (hydroxypropylcellulose) (HPC).
Setting [5] is: dose: 100.0 mg/kg/injection, schedule: Q01DX009 (ip), vehicle: saline.
Setting [6] is: dose: 200.0 mg/kg/injection, schedule: Q01DX001 (ip), vehicle: saline.
The mark [7] stands for this setting: dose: 400.0 mg/kg/injection, schedule: Q01DX001 (ip), vehicle: saline.
Where [8] appears, read: dose: 100.0 mg/kg/injection, schedule: Q04DX003 (ip), vehicle: saline.
[9] abbreviates: dose: 200.0 mg/kg/injection, schedule: Q04DX003 (ip), vehicle: saline.
[10] abbreviates: dose: 400.0 mg/kg/injection, schedule: Q04DX003 (ip), vehicle: saline.
The mark [11] stands for this setting: dose: 300.0 mg/kg/injection, schedule: Q01DX001 (ip), vehicle: acetone.

The list shows only some results of the screen, not a fair sample: it gathers tests that were run many times, whatever their T/C, doses with no T/C, and many T/C values between a quarter and a half above the control. Other doses and runs of a compound stand elsewhere. T/C gives the treated animals as a percentage of the vehicle group. Some entries give survivors of the animals treated and no T/C: the source files T/C as zero there, which appears to mark a toxic dose or a test without result, not a measured value. Some doses without a T/C left all or most animals alive at the check, yet need not have been tolerated: the source hardly ever lists a survival T/C far under the control, and the zero likely stands for such cases as well. Counts of survivors are from the toxicity check (mostly the fifth day) where no day follows; animals may have died later. Schedule codes are those of the source, taken here to give the interval after Q, in days (D) or hours (H), and the number of doses after X. Some schedules carry Z or #; the key to these is not given. Some entries hold several experiments; the values are given in rising order. Where survival is the endpoint, the PubChem record calls one and a half times the control and up active, and a quarter to a half above the control has no call in these data; cut-offs in other NCI protocols can differ. Some T/C values are followed by the survivors on the day toxicity was checked, most often the fifth; without a count, all were alive then.

Turning to `CCCCCCCC/C=C\CCCCCCCCSC#N`, the survivor count (dose: 100.0 mg/kg/injection, schedule: Q04DX002 (ip), vehicle: saline with Tween-80) was 3 of 3 and the survivor count under setting [1] is on record as 3 of 3.
In the case of `CC(C)C(/C=N/N=C(N)N)=N\N=C(N)N`, the survivor count reads like this: (dose: 240.0 mg/kg/injection, schedule: Q01DX Z (ip), vehicle: methylcellulose (MC)) 3 of 6; (dose: 360.0 mg/kg/injection, schedule: Q01DX Z (ip), vehicle: methylcellulose (MC)) 1 of 6; (dose: 480.0 mg/kg/injection, schedule: Q01DX Z (ip), vehicle: methylcellulose (MC)) 0 of 6; (dose: 600.0 mg/kg/injection, schedule: Q01DX Z (oral), vehicle: methylcellulose (MC)) 0 of 6; (dose: 720.0 mg/kg/injection, schedule: Q01DX Z (oral), vehicle: methylcellulose (MC)) 0 of 6; (dose: 840.0 mg/kg/injection, schedule: Q01DX Z (oral), vehicle: methylcellulose (MC)) 0 of 6.
Turning to `Cc1nccnc1S(=O)(=O)c1ccc2ccccc2c1`, the survivor count (dose: 400.0 mg/kg/injection, schedule: Q01DX001 (ip), vehicle: Klucel (hydroxypropylcellulose) (HPC)) is recorded as 2 of 6.
Consider `Cc1ccc(C)c(NC(=O)Oc2ccc(Br)cc2Br)c1`, for which the T/C under setting [2] was 92, 95, 111 % of control. In addition, the survivor count by setting is: under setting [2], 6 of 6; under setting [3], 6 of 6; under setting [4], 1 of 6, 5 of 6, 6 of 6.
For `NNC(=O)CCCc1ccccc1`, the survivor count under setting [5] was 6 of 6, the survivor count under setting [6] was 3 of 6 and the survivor count under setting [7] is 0 of 6.
For `SC1(S)CN2CCC1CC2`, the survivor count (dose: 25.0 mg/kg/injection, schedule: Q01DX009 (ip), vehicle: saline) is 3 of 6.
For the molecule `CC[C@@](O)(C(=O)NC)c1cc2n(c(=O)c1CO)Cc1cc3ccccc3nc1-2`, the T/C runs as follows: (dose: 1.0 mg/kg/injection, schedule: Q01DX015 (ip), vehicle: saline) 134 % of control; (dose: 1.5 mg/kg/injection, schedule: Q01DX015 (ip), vehicle: saline) 134 % of control; (dose: 3.5 mg/kg/injection, schedule: Q01DX015 (ip), vehicle: saline) 126 % of control; (dose: 8.0 mg/kg/injection, schedule: Q01DX001 (ip), vehicle: saline) 139 % of control; (dose: 16.0 mg/kg/injection, schedule: Q01DX001 (ip), vehicle: saline) 131 % of control; (dose: 32.0 mg/kg/injection, schedule: Q01DX001 (ip), vehicle: saline) 133 % of control [3 of 4 alive]. In addition, the survivor count runs as follows: (dose: 8.0 mg/kg/injection, schedule: Q01DX015 (ip), vehicle: saline) 6 of 6; (dose: 12.0 mg/kg/injection, schedule: Q01DX015 (ip), vehicle: saline) 6 of 6.
`C=C1N2CCC(CC2)C1(O)c1ccccc1` (stereo unspecified): the survivor count is, setting by setting: (dose: 25.0 mg/kg/injection, schedule: Q04DX003 (ip), vehicle: Klucel (hydroxypropylcellulose) (HPC)) 1 of 6; (dose: 50.0 mg/kg/injection, schedule: Q04DX003 (ip), vehicle: Klucel (hydroxypropylcellulose) (HPC)) 0 of 6; under setting [8], 0 of 6; under setting [9], 0 of 6; under setting [10], 0 of 6.
For the molecule `NC1CCCCC1I` (stereo unspecified), under setting [11], the survivor count is 2 of 6.
Take `N=C(N)SC12CC3CC(CC(C3)C1)C2`: the survivor count by setting is: (dose: 100.0 mg/kg/injection, schedule: Q04DX002 (ip), vehicle: Klucel (hydroxypropylcellulose) (HPC)) 0 of 3; (dose: 200.0 mg/kg/injection, schedule: Q04DX002 (ip), vehicle: Klucel (hydroxypropylcellulose) (HPC)) 0 of 3; (dose: 400.0 mg/kg/injection, schedule: Q04DX002 (ip), vehicle: Klucel (hydroxypropylcellulose) (HPC)) 0 of 3.
`NNC(=O)CNc1ccc(F)c(Cl)c1`: the survivor count is reported as 1 of 3 (dose: 200.0 mg/kg/injection, schedule: Q04DX002 (ip), vehicle: saline + alcohol) and 0 of 3 (dose: 400.0 mg/kg/injection, schedule: Q04DX002 (ip), vehicle: saline + alcohol).
With `CC(C)(C)C1(C)CNC(=O)O1` (stereo unspecified), the survivor count is, setting by setting: under setting [3], 4 of 6; (dose: 200.0 mg/kg/injection, schedule: Q04DX003 (ip), vehicle: Klucel (hydroxypropylcellulose) (HPC)) 5 of 6; (dose: 400.0 mg/kg/injection, schedule: Q04DX003 (ip), vehicle: Klucel (hydroxypropylcellulose) (HPC)) 3 of 6.
`CCCCCCCCCCCCCCCC[N+]1(C)CCN(SN2CC[N+](C)(CCCCCCCCCCCCCCCC)CC2)CC1`: the survivor count under setting [5] is reported as 0 of 6, the survivor count under setting [9] is recorded as 6 of 6 and the survivor count under setting [10] is 5 of 6.
Turning to `O=C(O)c1ccc2ccc3cccnc3c2n1`, where the note is “dose: 400.0 mg/kg/injection, schedule: Q04DX003 (ip), vehicle: saline with Tween-80”, the survivor count is on record as 1 of 4.
As to `CC(C)(C)OC(=O)NCCCCC(NC(=O)OCc1ccccc1)C(=O)O` (stereo unspecified), the survivor count reads like this: (dose: 200.0 mg/kg/injection, schedule: Q01DX009 (ip), vehicle: saline with Tween-80) 3 of 6; under setting [1], 0 of 6.
For the molecule `CC(=O)OC1CCCC(OCC(C)C)O1` (stereo unspecified), where the note is “dose: 26.6 mg/kg/injection, schedule: Q01DX Z (ip), vehicle: saline”, the survivor count is given as 6 of 6.
Consider `CCc1ccccc1N/N=C(\Cl)C(C)=O`, for which the survivor count is, setting by setting: (dose: 50.0 mg/kg/injection, schedule: Q01DX009 (ip), vehicle: saline) 2 of 6; under setting [5], 2 of 6; (dose: 200.0 mg/kg/injection, schedule: Q01DX009 (ip), vehicle: saline) 0 of 6.
Regarding `CCCCCCCCCNC(C)=O`, the survivor count under setting [4] is given as 0 of 6.
Take `Cc1ccc(Nc2cc(N)nc(N)n2)cc1C`: the survivor count is, setting by setting: (dose: 100.0 mg/kg/injection, schedule: Q01DX Z (ip), vehicle: methylcellulose (MC)) 5 of 6; (dose: 200.0 mg/kg/injection, schedule: Q01DX Z (ip), vehicle: methylcellulose (MC)) 3 of 6.
In the case of `CCC(C)N(CCCOC(=O)c1ccc(N)cc1)C(C)CC` (stereo unspecified), the survivor count is, setting by setting: under setting [8], 3 of 6; under setting [9], 0 of 6; under setting [10], 0 of 6.
Take `CC(C)(COC(=O)COc1ccc(Cl)cc1Cl)[N+](=O)[O-]`: the survivor count under setting [4] is given as 6 of 6.
As to `CNP(Br)(c1ccccc1)(c1ccccc1)c1ccccc1`, the survivor count is, setting by setting: (dose: 20.0 mg/kg/injection, schedule: Q01DX001 (ip), vehicle: saline) 3 of 6; (dose: 40.0 mg/kg/injection, schedule: Q01DX001 (ip), vehicle: saline) 0 of 6; (dose: 75.0 mg/kg/injection, schedule: Q01DX001 (ip), vehicle: acetone) 0 of 6; (dose: 150.0 mg/kg/injection, schedule: Q01DX001 (ip), vehicle: acetone) 0 of 6; under setting [11], 0 of 6.
Consider `COc1cc(Cl)ccc1NC(=O)Oc1ccccc1C(N)=O`, for which the survivor count is, setting by setting: (dose: 25.0 mg/kg/injection, schedule: Q01DX009 (ip), vehicle: Klucel (hydroxypropylcellulose) (HPC)) 6 of 6; under setting [2], 5 of 6; under setting [3], 5 of 6; under setting [4], 0 of 6.
`NC(N1CC1)(C(F)(F)F)C(F)(F)F`: the survivor count (dose: 100.0 mg/kg/injection, schedule: Q01DX001 (ip), vehicle: saline) is recorded as 2 of 6; the survivor count under setting [6] is 0 of 6; the survivor count under setting [7] is given as 0 of 6.
For the molecule `Cc1cccc(NC(=O)N(C)N)c1`, the survivor count (dose: 300.0 mg/kg/injection, schedule: Q01DX001 (ip), vehicle: carboxymethylcellulose (CMC)) is recorded as 3 of 6.
Turning to `Cc1cc(C)cc(OCC2CNC(=O)O2)c1` (stereo unspecified), the survivor count under setting [8] is reported as 4 of 4.
For `COc1ccc(OC)c(NC(=O)c2ccc(Cl)c(Cl)c2)c1`, the survivor count under setting [1] is recorded as 6 of 6.
